Experimental data: PubChem BioAssay AID1487 (National Center for Advancing Translational Sciences (NCATS), 2009)
In all, about 200,000 compounds went through this assay and about 25 (0.01%) were called active. The shares of active, inactive and inconclusive entries below differ from those in the screen. Calls come from the whole dose curve; as a rule, active = well fitted inhibition curve with a large enough effect in the signal ratio, with a control signal flat (not every such curve was filed as active); inconclusive = small, poorly fitted or top-dose-only effect, or effect the other way, or a change in a side signal; inactive = flat fitted curve, though single readings scatter; the % refers to the signal ratio. Where the call is inconclusive, the potency comes from a doubtful curve fit.

test: qHTS Assay for Modulators of Lamin A Splicing; details: HeLa LMNA splicing GFP/RFP minigene ratio, 48 h; ratio change, negative = inhibition: at 46.1 µM (top of the series) unless noted
In short: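 Read-out is the ratio of GFP to DsRed2 object intensity, acquired by 488 nm laser-scanning cytometry on HeLa lamin A-EGFP minigene reporter cells. Compound incubation 48 hrs at 37 °C in Opti-MEM with 2% FBS; DMSO 0.5% final.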
% is set by controls: 0 for no effect and ±100 for the full control effect; potency is the fitted concentration of half-maximal effect.

Compound	ratio change, negative = inhibition	Potency
Cc1ccccc1-c1nc(N(C)Cc2ccco2)c2ccccc2n1	inconclusive: -4.69%	–
CCOC(=O)CCCn1nc(C)n2c(cc3sccc32)c1=O	inactive: -8.47%	–
CCCSc1nc(N2CCOCC2)c2c(c1C#N)CC(C)(C)SC2	inconclusive: 10.2%	–
Cc1ccc(SCCC(=O)N2CCCC2)cc1	inconclusive: 8.73%	–
COc1cccc(OCC(=O)Nc2ccccc2NC(C)=O)c1	inactive: 6.44%	–
CCC(C)C(=O)Nc1nccs1 (stereo not given)	inconclusive: 38.9% [at 46 µM]	–
O=C(Nc1ccc2c(c1)OCCO2)Nc1ccc2c(c1)OCO2	inconclusive: -15.1% [at 46 µM]	–
CC1CCN(C(=O)CSc2nc3ccccc3c(=O)n2Cc2ccc3c(c2)OCO3)CC1	inactive: 2.56% [at 0.0737 µM]	–
COc1cccc(C(=O)/C=C/c2ccc(SC)cc2)c1	–	inconclusive: 31.6 µM [cytotoxic, single point]
CNc1nccc(-c2ccc(Cl)cc2)c1C#N	–	inconclusive: 12.6 µM [activator, partial curve]
CN(C)CCNC(=O)c1ccc(-n2c(-c3ccccc3)cc3c2CCCCC3)cc1	inactive: -13% [at 46 µM]	–
COCCN1Cc2cc3cc(C)ccc3nc2SC1=Nc1ccc(OC)cc1	inactive: 3.23% [at 46 µM]	–
CNC(=O)CSc1nnc(-c2cccnc2)n1CCc1ccccc1	inactive: 0.742%	–
Cc1cccc2sc(NC(=O)C3CCN(S(=O)(=O)c4cc([N+](=O)[O-])ccc4Cl)CC3)nc12	–	inconclusive: 10 µM [fluorescent, partial curve]
Cc1ccc(/C=N/n2c(C)nc3ccccc3c2=O)s1	inconclusive: -10.3% [at 46 µM]	–
Fc1ccc(-c2noc3ncnc(Nc4ccc(F)cc4F)c23)cc1	inconclusive: -3.98% [at 46 µM]	–
COc1ccc(S(=O)(=O)c2c(Nc3c(C)cccc3C)sc(C(=O)c3ccc(F)cc3)c2N)cc1	–	inconclusive: 1.26 µM [inhibitor, full curve]
CNc1ccc(SC#N)cc1	inconclusive: -38.4% [at 46 µM]	–
CC(/C=C/c1ccco1)=N\NC(=O)CNc1ccc2ccccc2c1	inactive: -10.6% [at 46 µM]	–
Cc1ccccc1NC(=O)N1CCN(S(=O)(=O)c2ccccc2)CC1	inactive: 5.32% [at 46 µM]	–
CC(C)=Cc1oc2ccc([N+](=O)[O-])cc2c1N1CC(C)OC(C)C1 (stereo not given)	inconclusive: 5.16% [at 46 µM]	–
COc1ccc(CNC(=O)C(=O)Nc2c3c(nn2-c2ccccc2)CSC3)cc1	inconclusive: 6.64% [at 46 µM]	–
Nn1c(SCC(=O)NCc2ccccc2)nnc1C1CC1	inconclusive: 8.49%	–
COc1cc(/C=C2\OC(=O)c3c(OC)cccc32)ccc1O	inactive: 2.17%	–
COC(=O)c1c(-c2cccs2)csc1NC(=O)c1ccc(Br)cc1	inactive: -6.14% [at 46 µM]	–
Cc1occc1C(=O)Nc1ccc2c(c1)OCO2	inactive: -12%	–
CN(C)C1(CNC(=O)COc2ccc([N+](=O)[O-])cc2)CCCCC1	inactive: -1.47% [at 46 µM]	–
Cc1c(Cc2ccc3c(c2)OCO3)sc(NC(=O)c2ccc3ccccc3c2)c1C(N)=O	inconclusive: -11.1%	–

Looked up above:
Entry of Cc1ccc(SCCC(=O)N2CCCC2)cc1 under ratio change, negative = inhibition: inconclusive: 8.73%
Entry of Cc1ccc(/C=N/n2c(C)nc3ccccc3c2=O)s1 under ratio change, negative = inhibition: inconclusive: -10.3% [at 46 µM]

Continued.

Compound	ratio change, negative = inhibition	Potency
CCn1c(CN2CCOCC2)nc2cc(NC(=O)c3ccccc3[N+](=O)[O-])ccc21	inactive: -2.11% [at 46 µM]	–
CC/C(=N\Nc1ccc([N+](=O)[O-])cc1)c1ccccc1	inconclusive: -25% [at 46 µM]	–
COc1cc(OC)c2c(=O)c(-c3ccc4c(c3)OCO4)coc2c1	inactive: -5.56%	–
O=c1[nH]cnc2c1ncn2C1OC(CO)C(O)C1O (stereo not given)	inconclusive: -12%	–
Cc1cccc(NC(=S)N(Cc2cccc(Br)c2)CC2CCC(C(=O)O)CC2)c1 (stereo not given)	inconclusive: 15.3% [at 46 µM]	–
C/C(=N/Nc1ccc(F)cc1)c1ccc(Cl)s1	inactive: 6.22%	–
CCOC(=O)C1CCC(CN(Cc2ccc(OC)cc2)S(=O)(=O)c2ccc(F)c(C(=O)Nc3ccc(C)c(C)c3)c2)CC1 (stereo not given)	inconclusive: 11.8% [at 46 µM]	–
CNc1ccc(Br)cc(C(=O)/C=C/c2ccc(OC)cc2OC)c1=O	inconclusive: 2.34%	–
COc1ccccc1CNc1nc(-c2ccco2)nn1C(=O)c1cc(OC)c(OC)c(OC)c1	inactive: -7.66% [at 46 µM]	–
CCCn1c2ccccc2c2cnn(CC(=O)NCC3CCN(Cc4ccc(F)cc4)CC3)c(=O)c21	inconclusive: -28.4% [at 46 µM]	–
COc1ccccc1N1CCN(C(=O)c2cnn(-c3cccc(Cl)c3)c2C2CCN(C(=O)OC(C)(C)C)CC2)CC1	inactive: -26.3% [at 46 µM]	–
N[C@@H](Cc1ccc(O)cc1)C(=O)O	inconclusive: -12.2%	–
Cc1sc2nc(SCC(=O)NCc3ccco3)n(-c3ccccc3)c(=O)c2c1C	inactive: 8.04%	–
COCCN(C(=O)CCCC(=O)Nc1ccccn1)C(C(=O)NC1CCCC1)c1ccc(C)cc1 (stereo not given)	inconclusive: 0.276%	–
CCCCn1c(=N)c(S(=O)(=O)c2ccc(C)cc2)cc2c(=O)n3cc(C)ccc3nc21	inactive: -2.56% [at 46 µM]	–
Cc1cccc(NC(=O)CN2CCN(CC(=O)Nc3cccc(C)c3)CC2)c1	inactive: 4.13%	–
CCc1cc2c(C)ccc(C)c2nc1SCC(=O)Nc1c[nH]c(=O)[nH]c1=O	–	inconclusive: 35.5 µM [cytotoxic, single point]
NNC(=S)Nc1ccc(Cl)cc1	inconclusive: -22.2% [at 46 µM]	–
O=C(CCNC(=O)c1ccco1)Nc1ccc(SC(F)F)cc1	inactive: -9.8% [at 46 µM]	–
Cc1ccc(S(=O)(=O)N2CCN(c3nc(C(C)C)c4c(c3C#N)CC(C)(C)OC4)CC2)cc1	inconclusive: 49%	–
N#Cc1nc(-c2ccc(OCc3ccccc3)cc2)oc1NCCCn1ccnc1	inconclusive: -21%	–
O=C(Nc1nnc(-c2ccc(Cl)cc2)o1)c1ccccc1Br	inconclusive: -33.5%	–
CCOC(=O)c1c(NC(=S)Nc2ccc(F)cc2)sc2c1CCC2	inactive: 18.9%	–
CCCCCc1ccc(-c2ccc(=O)[nH]n2)cc1	inconclusive: -3.99%	–
Cc1ccc(-n2cnc3cc(C(=O)NC4CCCCCC4)ccc32)c(C)c1	inconclusive: -33.4% [at 46 µM]	–
C/C=C/COC(=O)c1[nH]c2c(c1C)C(=O)CC(c1ccco1)C2 (stereo not given)	inconclusive: -4.87%	–
CCCCCCN(C(=O)CCCCCN1C(=O)NC(c2ccc(Cl)cc2)C(C(=O)OCc2ccccc2)=C1C)C(C(=O)NCCCC)c1ccc(OCC(=O)OC)c(C(=O)OC)c1 (stereo not given)	inactive: -0.395%	–
